Laboratory results taken from PubChem BioAssay AID188 (DTP/NCI, 2004).
Values are animals surviving of animals treated; these mice carried no tumour. Survivors were counted at the toxicity check, usually on the fifth day, unless a day is given; later deaths do not show. Schedule codes are those of the source, read here as Q, the interval in days (D) or hours (H), X, the number of doses.

Test system: CD2F1 mice, nontumored, toxicity/survival
Assay: NCI In Vivo Anticancer Drug Screen. Data for tumor model Nontumored Animals (Toxicity Test) in CD2F1 (CDF1) mice
[1] = dose: 1.0 mg/kg/injection, schedule: Q01DX001 (ip), vehicle: DMSO
[2] = dose: 10.0 mg/kg/injection, schedule: Q01DX001 (ip), vehicle: DMSO
[3] = dose: 100.0 mg/kg/injection, schedule: Q01DX001 (ip), vehicle: DMSO

O/N=c1/ccn(O)c2ccccc12
survivor count (dose: 0.25 mg/kg/injection, schedule: Q03HX024 (ip), vehicle: saline): 8 of 8 | survivor count (dose: 0.5 mg/kg/injection, schedule: Q03HX008 (ip), vehicle: saline): 8 of 8 | survivor count (dose: 0.5 mg/kg/injection, schedule: Q03HX016 (ip), vehicle: saline): 8 of 8 | survivor count (dose: 0.5 mg/kg/injection, schedule: Q03HX024 (ip), vehicle: saline): 8 of 8 | survivor count (dose: 1.0 mg/kg/injection, schedule: Q01DX005 (ip), vehicle: saline): 8 of 8 | survivor count (dose: 1.0 mg/kg/injection, schedule: Q01DX009 (ip), vehicle: saline): 8 of 8 | survivor count (dose: 1.0 mg/kg/injection, schedule: Q03HX008 (ip), vehicle: saline): 8 of 8 | survivor count (dose: 1.0 mg/kg/injection, schedule: Q03HX016 (ip), vehicle: saline): 8 of 8 | survivor count (dose: 1.0 mg/kg/injection, schedule: Q03HX024 (ip), vehicle: saline): 8 of 8 | survivor count (dose: 2.0 mg/kg/injection, schedule: Q01DX005 (ip), vehicle: saline): 8 of 8 | survivor count (dose: 2.0 mg/kg/injection, schedule: Q01DX009 (ip), vehicle: saline): 8 of 8 | survivor count (dose: 2.0 mg/kg/injection, schedule: Q03HX008 (ip), vehicle: saline): 7 of 8 | survivor count (dose: 2.0 mg/kg/injection, schedule: Q03HX016 (ip), vehicle: saline): 8 of 8 | survivor count (dose: 2.0 mg/kg/injection, schedule: Q03HX024 (ip), vehicle: saline): 8 of 8 | survivor count (dose: 2.0 mg/kg/injection, schedule: Q04DX003 (ip), vehicle: saline): 8 of 8 | survivor count (dose: 4.0 mg/kg/injection, schedule: Q01DX001 (ip), vehicle: saline): 8 of 8 | survivor count (dose: 4.0 mg/kg/injection, schedule: Q01DX005 (ip), vehicle: saline): 8 of 8 | survivor count (dose: 4.0 mg/kg/injection, schedule: Q01DX009 (ip), vehicle: saline): 8 of 8 | survivor count (dose: 4.0 mg/kg/injection, schedule: Q03HX008 (ip), vehicle: saline): 6 of 8 | survivor count (dose: 4.0 mg/kg/injection, schedule: Q03HX016 (ip), vehicle: saline): 5 of 8 | survivor count (dose: 4.0 mg/kg/injection, schedule: Q03HX024 (ip), vehicle: saline): 3 of 8 | survivor count (dose: 4.0 mg/kg/injection, schedule: Q04DX003 (ip), vehicle: saline): 8 of 8 | survivor count (dose: 4.0 mg/kg/injection, schedule: Q08DX002 (ip), vehicle: saline): 8 of 8 | survivor count (dose: 8.0 mg/kg/injection, schedule: Q01DX001 (ip), vehicle: saline): 8 of 8 | survivor count (dose: 8.0 mg/kg/injection, schedule: Q01DX005 (ip), vehicle: saline): 6 of 8 | survivor count (dose: 8.0 mg/kg/injection, schedule: Q01DX009 (ip), vehicle: saline): 5 of 8 | survivor count (dose: 8.0 mg/kg/injection, schedule: Q03HX008 (ip), vehicle: saline): 4 of 8 | survivor count (dose: 8.0 mg/kg/injection, schedule: Q04DX003 (ip), vehicle: saline): 8 of 8 | survivor count (dose: 8.0 mg/kg/injection, schedule: Q08DX002 (ip), vehicle: saline): 8 of 8 | survivor count (dose: 16.0 mg/kg/injection, schedule: Q01DX001 (ip), vehicle: saline): 8 of 8 | survivor count (dose: 16.0 mg/kg/injection, schedule: Q01DX005 (ip), vehicle: saline): 0 of 8 | survivor count (dose: 16.0 mg/kg/injection, schedule: Q04DX003 (ip), vehicle: saline): 8 of 8 | survivor count (dose: 16.0 mg/kg/injection, schedule: Q08DX002 (ip), vehicle: saline): 8 of 8 | survivor count (dose: 32.0 mg/kg/injection, schedule: Q01DX001 (ip), vehicle: saline): 4 of 8 | survivor count (dose: 32.0 mg/kg/injection, schedule: Q04DX003 (ip), vehicle: saline): 7 of 8 | survivor count (dose: 32.0 mg/kg/injection, schedule: Q08DX002 (ip), vehicle: saline): 6 of 8 | survivor count (dose: 64.0 mg/kg/injection, schedule: Q01DX001 (ip), vehicle: saline): 1 of 8

CC(=O)Nc1nc(Br)c2ccccc2c1-c1ccc(N(CCO)CCOS(=O)(=O)c2ccc(C)cc2)cc1
survivor count [1]: 2 of 2 | survivor count [2]: 2 of 2 | survivor count [3]: 2 of 2

CN(N=O)C(=O)N[C@@H](C=O)[C@@H](O)[C@H](O)[C@H](O)CO
survivor count (dose: 60.0 mg/kg/injection, schedule: Q01DX009 (ip), vehicle: saline): 4 of 4 | survivor count (dose: 100.0 mg/kg/injection, schedule: Q01DX009 (ip), vehicle: saline): 4 of 4 | survivor count (dose: 167.0 mg/kg/injection, schedule: Q01DX009 (ip), vehicle: saline): 4 of 4

Nc1ncc2ccccc2c1-c1ccc(NC(=O)CCCl)cc1
survivor count [1]: 2 of 2 | survivor count [2]: 2 of 2 | survivor count [3]: 2 of 2
